Patent US20050245434A1, “Oxygenated dibenzo-alpha-pyrone chromoproteins” (priority 2004, published 2005)
At least one compound was matched to its structure with a doubt left.

Tested on: adrenal gland ascorbic acid and corticosterone concentrations and plasma corticosterone level
Experiment: Adrenocorticoid activity: adrenal gland ascorbic acid, adrenal and plasma corticosterone, unstressed and CS rats
Assay type: in vivo, CF strain albino rats
Conditions: dose related, to different extents

| Structure (SMILES) | Stress-induced adverse effects (adrenal ascorbic acid and corticosterone depletion, plasma corticosterone increase) |
| --- | --- |
| CC/C=C\C/C=C\C/C=C\C/C=C\C/C=C\C/C=C\CCC(=O)O [DHA, Docosahexaenoic acid] | reversed |
| CC/C=C\C/C=C\C/C=C\C/C=C\C/C=C\CCCC(=O)O [EPA, Eicosapentaenoic acid] | reversed |
